We go through 1 substance from paper PMC9444074.

No constants are given. Whether binding was seen depends on the method and setting. In cells and extracts the contact can be indirect. Binding calls can cover weak binding; strength is not graded here. Tags and fused reporters may be left off the sequences shown.

This experiment addresses T1, GFP-tagged TAOK1 (human) (UniProt Q7L7X3).
T1 sequence: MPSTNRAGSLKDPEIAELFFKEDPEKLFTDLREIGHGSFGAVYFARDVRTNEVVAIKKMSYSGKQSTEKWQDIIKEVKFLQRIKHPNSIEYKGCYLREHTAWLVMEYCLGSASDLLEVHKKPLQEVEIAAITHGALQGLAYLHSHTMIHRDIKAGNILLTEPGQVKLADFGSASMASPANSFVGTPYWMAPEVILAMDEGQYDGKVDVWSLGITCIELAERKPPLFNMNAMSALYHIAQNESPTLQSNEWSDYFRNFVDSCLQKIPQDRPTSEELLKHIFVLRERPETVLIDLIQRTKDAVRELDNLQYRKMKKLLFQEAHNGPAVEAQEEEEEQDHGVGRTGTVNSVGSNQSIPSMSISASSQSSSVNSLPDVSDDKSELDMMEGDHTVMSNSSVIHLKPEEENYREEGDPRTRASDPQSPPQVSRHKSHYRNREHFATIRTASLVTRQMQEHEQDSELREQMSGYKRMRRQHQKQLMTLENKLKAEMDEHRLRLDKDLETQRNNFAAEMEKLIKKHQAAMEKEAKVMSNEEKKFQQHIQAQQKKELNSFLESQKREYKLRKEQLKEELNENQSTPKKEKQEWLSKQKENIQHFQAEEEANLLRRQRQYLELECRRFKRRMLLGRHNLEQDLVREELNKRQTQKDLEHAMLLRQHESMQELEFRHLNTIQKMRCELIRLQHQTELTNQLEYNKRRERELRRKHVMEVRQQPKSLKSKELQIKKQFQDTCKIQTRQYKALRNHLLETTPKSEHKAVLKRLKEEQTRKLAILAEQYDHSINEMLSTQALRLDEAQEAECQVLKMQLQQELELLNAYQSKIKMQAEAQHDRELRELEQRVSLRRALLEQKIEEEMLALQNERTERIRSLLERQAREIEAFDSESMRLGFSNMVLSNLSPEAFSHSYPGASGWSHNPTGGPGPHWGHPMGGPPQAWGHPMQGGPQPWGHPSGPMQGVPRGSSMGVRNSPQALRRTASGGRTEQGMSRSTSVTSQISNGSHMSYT
The experiment in a line: co-IP; GFP-tagged kinase immunoprecipitated with GFP-Trap beads from lysates of transfected HEK293 cells (serum-starved, serum, calyculin A or PMA, with or without kinase inhibitors); washed in 0.15 M and 0.5 M NaCl buffers; endogenous 14-3-3s detected with the pan-14-3-3 antibody K19.

For “endogenous 14-3-3s (human (endogenous in HEK293))”, the binding result is “binds”.
